Assay results reported in patent US20210261621A1, “Preparation of Dilipid Polymixins and Use Thereof as Antimicrobial Adjuvants” (priority 2018, published 2021).
Some entries share one result that the patent states for a list of compounds. Positions of bridges follow the written chain, without caps; N, C: chain ends. Non-standard residues stand in square brackets, D forms with d. Residues, ends and D or L forms follow the SMILES beside them. *: point of attachment. Acetyl(1-adamantyl) = O=C(CC12CC3CC(CC(C3)C1)C2)*; Benzoyl(4-Ph) = O=C(c1ccc(-c2ccccc2)cc1)*; Dab = NCC[C@H](N)C(=O)O

System: P. aeruginosa
Experiment: MIC comparison over the P. aeruginosa strains tested
Type: cell-based, Pseudomonas aeruginosa
Conditions: against P. aeruginosa
From the text: Specifically, addition of another lipid component to the amine side-chain of Dab1 reduced polymyxin's activity against Escherichia coli, P. aeruginosa, Stenotrophomonas maltophilia, A. baumannii, Klebsiella pneumoniae and Enterobacter cloacae. However, the reduction of activity against P. aeruginosa was not as drastic relative to other Gram-negative pathogens. […] We believe that this selectivity for P. aeruginosa is due to differences in exopolysaccharides and lipopolysaccharides between Gram-negative bacteria. This finding may imply the possibility of developing antipseudomonal polymyxins for pathogen-specific therapy.
The in vitro antibacterial activity of the compounds studied were assessed by broth microdilution susceptibility testing following CLSI guidelines. Bacterial cultures were grown overnight prior to the assay. The overnight grown cultures were diluted in saline to 0.5 McFarland turbidity, followed by 1:50 dilution in Mueller-Hinton broth (MHB) for inoculation to a final concentration of approximately 5×10^5 colony forming units/mL. Testing was performed on 96-well plates where the tested compounds were 2-fold serially diluted in MHB and incubated with equal volumes of bacterial inoculum at 37° C. for 18 h. […] Wells containing MHB with or without bacterial cells were used as positive or negative control, respectively.

| SMILES | fold lower MIC relative to 2 |
| --- | --- |
| CC(C)C[C@@H]1NC(=O)[C@@H](Cc2ccccc2)NC(=O)[C@H](CCN)NC(=O)[C@@H](NC(=O)[C@H](CCN)NC(=O)[C@@H](NC(=O)[C@H](CCNC(=O)CC23CC4CC(CC(C4)C2)C3)NC(=O)CC23CC4CC(CC(C4)C2)C3)[C@@H](C)O)CCNC(=O)[C@H]([C@@H](C)O)NC(=O)[C@H](CCN)NC(=O)[C@H](CCN)NC1=O [Compound 4, Diadamantane Acetic Acid (Di-Adamantyl) Polymyxin] ({Acetyl(1-adamantyl)}-[Dab](Acetyl(1-adamantyl))T[Dab][Dab][Dab][dF]L[Dab][Dab]T; lactam 4-C) | 2-4 fold |
| CC(C)C[C@@H]1NC(=O)[C@@H](Cc2ccccc2)NC(=O)[C@H](CCN)NC(=O)[C@@H](NC(=O)[C@H](CCN)NC(=O)[C@@H](NC(=O)[C@H](CCNC(=O)c2ccc(-c3ccccc3)cc2)NC(=O)c2ccc(-c3ccccc3)cc2)[C@@H](C)O)CCNC(=O)[C@H]([C@@H](C)O)NC(=O)[C@H](CCN)NC(=O)[C@H](CCN)NC1=O [Compound 5, Dibiphenyl-4-Carboxylic Acid (Di-Biphenyl) Polymyxin] ({Benzoyl(4-Ph)}-[Dab](Benzoyl(4-Ph))T[Dab][Dab][Dab][dF]L[Dab][Dab]T; lactam 4-C) | 2-4 fold |
